This is an account of results in PubChem BioAssay AID2685 (National Center for Advancing Translational Sciences (NCATS), 2010).

This assay in a line: qHTS Assay for Lipid Storage Modulators in Drosophila S3 Cells.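 As to cell number change: cells counted by Cell Tracker Red CMTPX staining in the red channel.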 To be noted: BODIPY lipid droplet fluorescence, 18-24 h; for cell number change: measured here: cell count max response, cells fed with added oleic acid. Put shortly: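 Drosophila S3 cells got compounds at several concentrations plus oleic acid (400 uM solution). Laser-scanning cytometry with 488 nm excitation read lipid droplets at 500-530 nm and cells at 575-640 nm. Percent activity was relative to 20 uM Triacsin C.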
A general note: qHTS replaces the single test concentration by a dilution series.

Where [1] appears, read: measured here: cell number channel AC50, cells fed with added oleic acid.
The mark [2] stands for this setting: measured here: lipid fluorescence (Fed channel) AC50, cells fed with added oleic acid.

The list shows a part of the results. Shown are side measurements of this screen, not its main read-out; they come without a call. The list favours compounds with an active or inconclusive main result. Words in brackets tell the shape of the fitted curve; partial curves, single points and poor fits give uncertain potencies.

`COC(=O)c1ccc(NC(=O)Cn2nc(C)c3ccccc3c2=O)cc1`: the cell number change stood at 14%. Moreover, the AC50 under setting [1] is 0.259 µM [rising, full curve, poor fit]. Also, the AC50 under setting [2] was 29.1 µM [rising, single point].
For `COc1ccc(C(=O)COC(=O)CCNS(=O)(=O)c2ccccc2)c(OC)c1`, the cell number change was 13.3%. Also, the AC50 under setting [2] was 0.731 µM [falling, single point].
`CC(=O)Nc1nc(C)cs1`: the cell number change is -53.7%. Besides, the AC50 under setting [1] was 0.731 µM [falling, full curve]. For the same molecule, the AC50 under setting [2] is 0.517 µM [falling, full curve, poor fit].
As to `Cc1ccc(NC(=O)CN(C)S(=O)(=O)c2cccc3cccnc23)cc1`, the cell number change is -2.03%.
Regarding `O=C(CSC1=NC(=O)C(c2ccccc2)C(=O)N1)Nc1ccccc1[N+](=O)[O-]` (stereo not given), the cell number change was -27.7%. In addition, under setting [2], the AC50 is 16.4 µM [falling, single point].
`CCOC(=O)Cc1cnc(NC(=O)c2ccccc2)s1`: the cell number change was -11.1%.
As to `O=C(Nc1ccc(Br)cc1)C1CCCC1`, the cell number change is -13%. In addition, the AC50 under setting [2] is 29.1 µM [falling, single point].
For the molecule `Cc1cc(NC(=O)c2cc(-c3ccccn3)nc3ccc(Br)cc23)no1`, the AC50 under setting [2] is 11.6 µM [rising, single point].
`O=C(Nc1ccccc1)Nc1ccc2snnc2c1`: the cell number change is -65.3%. The AC50 under setting [1] was 23.1 µM [falling, partial curve]. Moreover, the AC50 under setting [2] was 25.9 µM [falling, partial curve].
Regarding `CCC1CCCCN1CCCNC(=O)CN1C(=O)c2cccnc2Oc2ccc(C)cc21` (stereo not given), the cell number change came out at 26.6%. Also, under setting [2], the AC50 is 29.1 µM [rising, single point].
As to `CC(C)c1nc2sc3c(=O)[nH]c(=S)[nH]c3c2c2c1CCC2`, the AC50 under setting [2] is 18.4 µM [falling, partial curve].
As for `CC(OC(=O)C1CC=CCC1C(N)=O)C(Cl)=C(Cl)Cl` (stereo not given), the cell number change was -14%. Moreover, the AC50 under setting [2] was 29.1 µM [falling, single point].
On to `COc1ccc(S(=O)(=O)N(C)c2ccc(C(N)=O)cc2)cc1`, for which the AC50 under setting [2] is 2.06 µM [falling, partial curve].
For the molecule `COC(=O)c1cc(NC(=O)CCc2c(C)nc3ncnn3c2C)cc(C(=O)OC)c1`, the cell number change amounted to 26.2%.
Regarding `CCN(CC)S(=O)(=O)c1cc([N+](=O)[O-])ccc1NNC(=O)Nc1ccccc1OC`, the cell number change is -38.7%. Under setting [1], the AC50 was 0.291 µM [falling, full curve]. Moreover, the AC50 under setting [2] was 6.51 µM [falling, single point].
For `CCCN(CC(=O)Nc1ccccc1C)C(=O)CCCNC(=O)c1ccc(Cl)cc1`, the cell number change is -5.39%. For the same molecule, the AC50 under setting [1] is 1.3 µM [rising, full curve, poor fit].
As for `CCC(CC)C(=O)Nc1cc(=O)n(C)c(=O)n1C`, the cell number change was -2.46%. In addition, the AC50 under setting [2] is 2.31 µM [rising, full curve].
Regarding `CCCN1CCC(Oc2cccc(C(=O)NCCc3ccccc3)c2)CC1`, the cell number change was -12%.
`O=C(CCC1CCCN(C(=O)c2ccc3cc[nH]c3c2)C1)N1CCN(c2ccccn2)CC1` (stereo not given): the cell number change was -43.5%. Moreover, the AC50 under setting [1] is 29.1 µM [falling, single point].
Turning to `CC(C)(C)NS(=O)(=O)c1ccc(NC(=O)C2CCCCC2)cc1`, the cell number change is -12.9%. Moreover, under setting [2], the AC50 was 18.4 µM [falling, partial curve, poor fit].
For the molecule `COc1ccc(Nc2nnc(-c3ccccc3)c3ccccc23)cc1C(=O)N1CCCCC1`, the cell number change worked out at 7.42%. The AC50 under setting [1] was 0.206 µM [falling, full curve].
As for `CCN(c1ccccc1)S(=O)(=O)c1ccc(NC(=S)NC(=O)c2cccs2)cc1`, the cell number change is -20%.
Regarding `CCc1ccc(-c2nc(CS(=O)CC(=O)NCc3cccnc3)c(C)o2)cc1` (stereo not given), the cell number change is -10.3%. Further, the AC50 under setting [2] was 4.61 µM [rising, partial curve].
As to `O=C(COC(=O)c1ccc2c(c1)S(=O)(=O)N=C1CCCCCN12)NCCc1ccc(F)cc1`, the cell number change was -31.9%. The AC50 under setting [1] was 2.31 µM [falling, full curve, poor fit].
As to `COc1cccc(C2NC(=O)NC(C)=C2C(=O)OCC2CCCCC2)c1` (stereo not given), the cell number change was -0.493%. In addition, under setting [2], the AC50 was 32.6 µM [falling, single point].
`CC(=O)c1cnc(SCC(=O)O)nc1C`: the cell number change is -14%.
In the case of `CCc1ccc(NC(=O)CSc2nnc(-c3ccco3)o2)cc1`, the cell number change came to 24%. Under setting [2], the AC50 was 6.51 µM [falling, partial curve, poor fit].
Regarding `CC(C)CCOCC(=O)Oc1ccccc1C(=O)O`, the cell number change was found to be 31%. Under setting [1], the AC50 is 9.2 µM [rising, partial curve, poor fit].
As to `Cc1ccc2[nH]c(C)cc(=S)c2c1`, the cell number change was -53.3%. The AC50 under setting [2] was 29.1 µM [falling, partial curve, poor fit].
With `Cc1oc(/N=C/c2ccc(Cl)cc2)c(C#N)c1C`, the cell number change is 7.26%. Further, under setting [2], the AC50 was 1.64 µM [falling, full curve, poor fit].
Take `N#CCC(=O)Nc1ccc(C(=O)N2CCN(c3ccccn3)CC2)cc1`: the cell number change came to 12.6%.
For the molecule `CC(NC(=O)COC(=O)CNS(=O)(=O)/C=C/c1ccccc1)c1ccccc1` (stereo not given), the cell number change was -31%. Besides, the AC50 under setting [1] is 8.2 µM [falling, partial curve].
Regarding `Cc1cccc(C)c1NC(=O)CN(C)C(=O)CC1CC2CCC1C2` (stereo not given), the cell number change was -21.2%. For the same molecule, the AC50 under setting [2] is 1.46 µM [falling, partial curve, poor fit].
With `C=CCNCC(=O)N1N=C(c2ccc3ccccc3c2)CC1c1ccc(OC)cc1` (stereo not given), the cell number change is -3.54%. For the same molecule, under setting [1], the AC50 is 1.46 µM [rising, partial curve].
As for `CCN(CC)S(=O)(=O)c1ccc(Cl)c(C(=O)Nc2nnc(C)s2)c1`, the cell number change amounted to 2.3%.
With `Cn1c(SCC(=O)NCCc2ccccc2)ncc(C(=O)Nc2ccc(F)cc2)c1=O`, the cell number change was 18.8%. In addition, under setting [2], the AC50 was 0.651 µM [rising, single point].
`Cn1c(CSc2nc3ccccc3s2)n[nH]c1=S`: the cell number change worked out at 81%. Moreover, under setting [1], the AC50 is 9.2 µM [rising, partial curve].
For the molecule `NC(=O)c1ccc(NC(=O)c2ccc(COc3ccccc3Br)cc2)cc1`, the cell number change is -9.13%. Moreover, under setting [2], the AC50 is 0.0517 µM [falling, full curve, poor fit].
Turning to `O=C(c1ccccc1)N1CCN(C(=O)c2cc3nc(-c4ccccc4)cc(C(F)(F)F)n3n2)CC1`, the cell number change is -3.36%.
As for `C=CCC1(C)C(=O)N(c2ccccc2)c2ccccc21` (stereo not given), the cell number change came to 4.35%. Also, the AC50 under setting [2] was 6.51 µM [rising, single point].
For `COc1ccc2oc(C(=O)OCc3c(C)noc3C)c(C)c2c1`, the cell number change turned out to be 78.5%.
As to `O=C(Nc1nnc(C2CCCCC2)s1)C1CC(=O)N(c2ccccc2)C1` (stereo not given), under setting [2], the AC50 is 29.1 µM [rising, single point].
`O=C(Nc1cc2c(ccc3ccccc32)oc1=O)C1CCCCC1`: the cell number change is -80%. The AC50 under setting [1] was 25.9 µM [falling, partial curve]. Moreover, the AC50 under setting [2] is 18.4 µM [falling, partial curve].
Take `Cc1ccccc1/[N+]([O-])=C/c1cccs1`: the cell number change was -108%. In addition, the AC50 under setting [1] was 29.1 µM [falling, partial curve, poor fit]. Further, the AC50 under setting [2] was 29.1 µM [falling, partial curve, poor fit].
Turning to `CN(CC(=O)Nc1ccccc1C(=O)NC1CC1)Cc1ccc(Cl)cc1`, the cell number change was 31.2%. Under setting [1], the AC50 is 29.1 µM [rising, single point]. In addition, under setting [2], the concentration at half-maximal activity (AC50) is 16.4 µM [rising, partial curve, poor fit].
Turning to `CC(=O)c1ccc(NC(=O)CN2CCOCC2)cc1`, the AC50 under setting [2] was 29.1 µM [rising, single point].
For the molecule `CSC(=O)NC(=O)NC(=O)c1ccc([N+](=O)[O-])cc1`, the cell number change was 1.19%. Further, under setting [1], the AC50 is 6.51 µM [falling, single point]. Also, under setting [2], the AC50 is 7.31 µM [falling, single point].
For the molecule `Cc1ccc(S(=O)(=O)c2nc(N3CCOCC3)sc2Cl)cc1`, under setting [2], the AC50 was 0.82 µM [rising, single point].
Take `COc1ccc(N2CCN(C(=O)COC(=O)CCc3ccccc3)CC2)cc1`: the cell number change worked out at 6.92%. Further, the AC50 under setting [1] is 6.51 µM [falling, single point]. Besides, the AC50 under setting [2] is 6.51 µM [falling, single point].
For the molecule `COc1ccc(S(=O)(=O)NCc2ccccn2)c(C)c1C`, the cell number change was 1.4%. The AC50 under setting [2] is 4.11 µM [rising, single point].
For `COc1ccc(C(=O)NC(=S)N2CCOCC2)cc1[N+](=O)[O-]`, the AC50 under setting [2] was 2.06 µM [rising, partial curve].
Turning to `C=CCNC(=S)Nc1ccc(N(C)C)cc1`, the cell number change is 0.529%. The AC50 under setting [1] is 6.51 µM [falling, single point].
With `CC(C)(C)c1ccc(C(=O)Nc2ccccc2Cl)cc1`, the cell number change was -8.66%. The AC50 under setting [1] was 0.731 µM [rising, single point]. Under setting [2], the AC50 is 0.0651 µM [falling, full curve, poor fit].
With `Cc1cc(C(=O)NCC(=O)OC(C)C(=O)N2CCOCC2)ccc1[N+](=O)[O-]` (stereo not given), the cell number change was -5.26%. Besides, under setting [2], the AC50 is 6.51 µM [falling, single point].
In the case of `COc1cc2c(cc1OC)-c1cc(OCc3cccnc3)nc(=O)n1CC2`, the cell number change stood at 175%. The AC50 under setting [1] was 20.6 µM [rising, single point]. The AC50 under setting [2] is 29.1 µM [rising, single point].
Consider `CS(=O)(=O)Nc1ccc(C(=O)NC2CCCC2)cc1`, for which, under setting [2], the AC50 is 3.66 µM [falling, partial curve].
Take `CCC(=O)NC(NC(=S)Nc1cccc2cccnc12)C(Cl)(Cl)Cl` (stereo not given): the cell number change was 28.9%. Besides, the AC50 under setting [1] was 3.26 µM [rising, single point]. Under setting [2], the AC50 was 3.26 µM [rising, partial curve].
Consider `CN(c1ccccc1)S(=O)(=O)c1cccc(C(=O)Nc2cccc(C(=O)NC3CC3)c2)c1`, for which, under setting [1], the AC50 was 6.51 µM [falling, single point].
On to `O=CN1CCN(S(=O)(=O)c2ccc(S(=O)(=O)NC3CCCCC3)cc2)CC1`, for which the cell number change was -12.5%. Besides, the AC50 under setting [2] is 1.16 µM [falling, single point].
On to `CCOC(=O)c1cc2c(ccn2C)n1Cc1ccccc1Cl`, for which the cell number change is -23.6%. For the same molecule, the AC50 under setting [2] was 20.6 µM [falling, single point].
As for `CCN1C(=O)c2ccccc2Sc2ccc(C(=O)NC(C)C)cc21`, the cell number change amounted to 4.37%.
Still for that read-out and setting: under `Cc1ccc(C(=O)NC(=S)Nc2cccc3c(C)cc(C)nc23)cc1` stands -24.8%.

For orientation: AC50 means the concentration giving half of the maximal activity seen. The low end stands for activity at low concentration, the high end for activity only at high concentration.
